Experimental data: patent publication US20120231005A1 (Merck Sharp & Dohme, published 2012)
No constants are given. Whether binding was seen depends on the method and setting. Some results given as binding are weak or reduced against the parent protein; the word gives no strength.

Sequences of proteins named here, by UniProt entry; tags and fusion partners are left off. A change or cut given only in a name is not applied to a line headed by its entry. A line that says so, or that is headed by a name, gives the form on record, which may keep a tag or linker.
UniProt Q8NBP7: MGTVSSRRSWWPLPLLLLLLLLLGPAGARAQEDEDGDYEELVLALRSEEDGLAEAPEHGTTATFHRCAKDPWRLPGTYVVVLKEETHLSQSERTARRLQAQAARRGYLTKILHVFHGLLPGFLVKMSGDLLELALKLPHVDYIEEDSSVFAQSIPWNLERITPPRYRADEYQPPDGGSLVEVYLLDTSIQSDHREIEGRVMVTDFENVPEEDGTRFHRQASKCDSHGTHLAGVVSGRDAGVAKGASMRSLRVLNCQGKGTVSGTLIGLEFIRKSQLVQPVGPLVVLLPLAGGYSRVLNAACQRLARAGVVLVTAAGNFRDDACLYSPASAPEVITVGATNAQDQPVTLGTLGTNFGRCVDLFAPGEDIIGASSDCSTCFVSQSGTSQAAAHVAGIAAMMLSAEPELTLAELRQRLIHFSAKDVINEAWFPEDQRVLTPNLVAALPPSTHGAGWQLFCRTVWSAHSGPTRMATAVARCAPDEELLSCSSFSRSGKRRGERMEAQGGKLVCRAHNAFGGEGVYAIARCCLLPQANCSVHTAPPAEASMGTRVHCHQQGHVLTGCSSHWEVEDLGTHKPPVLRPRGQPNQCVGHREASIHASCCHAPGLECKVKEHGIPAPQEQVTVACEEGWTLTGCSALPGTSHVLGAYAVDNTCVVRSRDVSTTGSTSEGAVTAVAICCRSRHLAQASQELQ
M1 (Q8NBP7, form named): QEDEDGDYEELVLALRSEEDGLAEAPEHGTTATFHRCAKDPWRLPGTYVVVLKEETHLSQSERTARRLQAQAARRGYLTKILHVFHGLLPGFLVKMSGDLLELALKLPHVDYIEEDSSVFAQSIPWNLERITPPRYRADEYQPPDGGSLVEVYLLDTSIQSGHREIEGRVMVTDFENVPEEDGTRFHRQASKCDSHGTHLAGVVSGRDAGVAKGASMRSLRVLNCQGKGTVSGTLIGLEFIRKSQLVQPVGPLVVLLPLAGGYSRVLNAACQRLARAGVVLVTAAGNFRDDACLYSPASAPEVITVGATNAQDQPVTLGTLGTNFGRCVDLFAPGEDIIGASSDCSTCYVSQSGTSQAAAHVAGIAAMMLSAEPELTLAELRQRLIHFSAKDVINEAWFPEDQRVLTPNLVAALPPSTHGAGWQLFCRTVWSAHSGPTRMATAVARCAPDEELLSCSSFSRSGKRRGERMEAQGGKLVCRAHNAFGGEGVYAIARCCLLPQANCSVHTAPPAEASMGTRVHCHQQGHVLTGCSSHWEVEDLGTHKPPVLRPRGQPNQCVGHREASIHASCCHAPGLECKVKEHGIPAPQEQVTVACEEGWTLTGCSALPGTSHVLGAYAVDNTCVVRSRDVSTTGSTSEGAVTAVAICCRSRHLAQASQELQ

Assays:
human PCSK9 [1] = target: T1, human PCSK9 (human, UniProt Q8NBP7 31-692, limits assumed); assay: affinity measurement, IgG2
human PCSK9 [2] = target: T1, human PCSK9; assay: recap of the Example 9 ELISA
M1 (human) = M1 (human) (UniProt Q8NBP7); assay: ELISA: PCSK9 protein coated at 5 ug/ml, IgG titrated, anti-human kappa-HRP, OD450
M3 (human) = M3 (human) (UniProt Q8NBP7); assay: as above
M4 (human) = M4 (human) (UniProt Q8NBP7); assay: as above
M5 (human) = M5 (human) (UniProt Q8NBP7); assay: as above
human PCSK9 [3] = target: T1, human PCSK9; assay: as above
human PCSK9 [4] = target: T1, human PCSK9; assay: Biacore epitope binning on immobilised human PCSK9

Measured: binding

B1: AX1DG IgG2 (antibody, V domains shown)
VH: EVQLLESGGGLVQPGGSLRLSCKASGFTFTSYYMHWVRQAPGKGLEWIGRINPDSGSTKYNEKFKGRATISRDNSKNTLYLQMNSLRAEDTAVYYCARGGRLSWDFDVWGQGTLVTVSS
VL: DIQMTQSPSSLSASVGDRVTITCRASQDISRYLAWYQQKPGKAPKLLIYAASSLQSGVPSRFSGSGSGTDFTLTISSLQPEDFATYYCAAYDYSLGGYVFGGGTKVEIK
notes: IgG2; also called AXIDG
not listed: human PCSK9 [4]
binds: all other assays above

B2: AX191 Fab (Fab, V domains shown)
VH: EVQLLESGGGLVQPGGSLRLSCKASGYTFSSYWMHWVRQAPGKGLEWIGRIDPYNGGTKYNEKFKGKATISRDNSKNTLYLQMNSLRAEDTAVYYCARYGYYLGSYAMDYWGQGTLVTVSS
VL: DIQMTQSPSSLSASVGDRVTITCRASQDISKYLAWYQQKPGKAPKLLIYAASSLQSGVPSRFSGSGSGTDFTLTISSLQPEDFATYYCQAYDYSSSAYVFGGGTKVEIK
binds: human PCSK9 [4]
